PMC10943099

The chains behind the UniProt entries cited, without tags or fusion partners.
UniProt O75175: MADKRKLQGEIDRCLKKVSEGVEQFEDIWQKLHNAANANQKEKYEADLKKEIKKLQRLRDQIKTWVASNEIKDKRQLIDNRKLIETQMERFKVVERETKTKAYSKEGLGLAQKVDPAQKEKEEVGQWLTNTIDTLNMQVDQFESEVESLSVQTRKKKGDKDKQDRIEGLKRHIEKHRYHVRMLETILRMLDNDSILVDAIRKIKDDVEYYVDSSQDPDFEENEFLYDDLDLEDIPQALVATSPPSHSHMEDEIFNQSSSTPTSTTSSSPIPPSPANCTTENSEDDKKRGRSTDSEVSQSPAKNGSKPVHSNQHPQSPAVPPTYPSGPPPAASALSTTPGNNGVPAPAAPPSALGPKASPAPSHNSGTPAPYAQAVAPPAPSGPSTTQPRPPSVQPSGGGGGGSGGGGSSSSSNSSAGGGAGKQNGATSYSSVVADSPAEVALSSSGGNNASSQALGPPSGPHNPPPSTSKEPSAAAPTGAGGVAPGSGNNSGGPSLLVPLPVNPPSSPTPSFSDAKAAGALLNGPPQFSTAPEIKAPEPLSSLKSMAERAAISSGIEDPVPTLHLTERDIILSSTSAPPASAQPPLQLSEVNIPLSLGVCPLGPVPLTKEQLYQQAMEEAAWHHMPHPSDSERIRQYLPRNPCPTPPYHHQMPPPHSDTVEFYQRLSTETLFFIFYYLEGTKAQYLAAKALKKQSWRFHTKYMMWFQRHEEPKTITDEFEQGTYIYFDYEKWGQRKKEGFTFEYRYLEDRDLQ
UniProt P26641: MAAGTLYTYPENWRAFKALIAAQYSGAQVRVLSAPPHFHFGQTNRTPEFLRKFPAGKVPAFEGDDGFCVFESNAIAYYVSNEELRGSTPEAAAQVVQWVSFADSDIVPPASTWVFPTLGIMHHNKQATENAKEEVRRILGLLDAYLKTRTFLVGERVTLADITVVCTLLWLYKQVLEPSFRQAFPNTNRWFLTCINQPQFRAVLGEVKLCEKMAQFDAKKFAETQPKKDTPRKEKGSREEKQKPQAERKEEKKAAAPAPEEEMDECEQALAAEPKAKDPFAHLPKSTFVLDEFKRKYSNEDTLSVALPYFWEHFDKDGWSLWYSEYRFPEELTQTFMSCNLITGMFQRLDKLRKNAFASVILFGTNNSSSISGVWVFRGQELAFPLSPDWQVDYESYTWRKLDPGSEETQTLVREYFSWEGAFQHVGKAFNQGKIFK

Target: CNOT3, subunit of the CCR4-NOT complex (endogenous) (human (endogenous in MOLM13)) (UniProt O75175)
Assay: affinity purification with mass spectrometry; immunoprecipitation of endogenous CNOT3 with anti-CNOT3 antibody (anti-mouse IgG as control) on protein A/G Dynabeads from MOLM13 lysate in 1x RIPA buffer, overnight at 4 °C; LC-MS/MS of co-precipitated proteins

binding | Molecule
binds | EEF1G (endogenous) (from UniProt P26641 1-437)
binds | EEF1E, the auxiliary component of the multi-synthetase complex (endogenous) (protein, UniProt O43324 1-174) MAAAAELSLLEKSLGLSKGNKYSAQGERQIPVLQTNNGPSLTGLTTIAAHLVKQANKEYLLGSTAEEKAIVQQWLEYRVTQVDGHSSKNDIHTLLKDLNSYLEDKVYLTGYNFTLADILLYYGLHRFIVDLTVQEKEKYLNVSRWFCHIQHYPGIRQHLSSVVFIKNRLYTNSH

No constants are given. Whether binding was seen depends on the method and setting. In cells and extracts the contact can be indirect. Here binding means that the protein was enriched with, or labelled near, the bait; the list need not be complete.
